# Values from PubChem BioAssay AID1224826 (NIAID, 2016).
# Test: 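Regulators of Tlr4 signalling leading to Tnf-alpha expression in macrophages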 (primary screen)
# Cells: RAW264.7 G9 macrophages from mouse bearing reporters for p65 (GFP) and the Tnf promoter (mCherry)
# Knock-down reagent: siRNA pool against mouse genes, 100 nM
# Timing: 16 h of LPS stimulation, after 2 days of siRNA transfection
# Conditions: bacterial lipopolysaccharide (Salmonella minnesota R595), 10 ng/ml
# Measured: 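Nuclear mCherry signal of the Tnf promoter reporter measured by imaging after background removal, scaled to each plate median and turned into robust z-scores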
# Reading the numbers: Tnf reporter robust z-score: higher = stronger Tnf promoter reporter signal after LPS
# Call rule: 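Called active when robust z-score is at most -1.3, matching the median of the Tlr4 knock-down control, or over 3; control wells and wells with under 50 cells never active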
# Meaning of the calls: active = Tnf reporter clearly lowered or raised; inactive = no clear change in Tnf reporter
# The whole screen tested about 17,000 reagents; this is a part drawn at random. About 1,110 of all reagents (6.6%) count as active. 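Active means lowered or raised reporter signal; replicate intensities are raw and not normalised per plate.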 The numbers tell different reagents against one gene apart. Not all columns of the deposit are shown.
gene,pool no.,Tnf reporter robust z-score,fewer than 50 cells in well,Outcome
Cnpy4,1,-0.3,enough cells in well,inactive
Zfp280c,1,1.25,enough cells in well,inactive
Sirt7,1,0.53,enough cells in well,inactive
Frem2,1,1.29,enough cells in well,inactive
Pabpc6,1,,fewer than 50 cells per well; well left out of calls,inactive
Nxpe2,1,0.51,enough cells in well,inactive
Sost,1,-1.14,enough cells in well,inactive
Glrx3,1,0.02,enough cells in well,inactive
Idnk,1,1.91,enough cells in well,inactive
Lpar5,1,-1.32,enough cells in well,active
Dgki,1,-1.05,enough cells in well,inactive
L3mbtl4,1,,fewer than 50 cells per well; well left out of calls,inactive
L3mbtl4,2,-1.74,enough cells in well,active
Cdon,1,0.82,enough cells in well,inactive
Or4c10,1,-1.37,enough cells in well,active
Vmp1,1,1.34,enough cells in well,inactive
Mtrr,1,0.12,enough cells in well,inactive
Vmn2r122,1,0.35,enough cells in well,inactive
Vmn2r122,2,-0.63,enough cells in well,inactive
Chaf1a,1,-1.4,enough cells in well,active
Ephb2,1,2.47,enough cells in well,inactive
Wscd1,1,0.08,enough cells in well,inactive
Lpcat4,1,0.18,enough cells in well,inactive
Pcsk1n,1,-0.29,enough cells in well,inactive
Gmnn,1,-0.49,enough cells in well,inactive
Or5p81,1,2.52,enough cells in well,inactive
Dcaf13,1,3.8,enough cells in well,active
Nudt2,1,-0.16,enough cells in well,inactive
Plekha5,1,-1.38,enough cells in well,active
Timeless,1,-1.16,enough cells in well,inactive
Nr0b1,1,0.52,enough cells in well,inactive
Lrrc40,1,1.5,enough cells in well,inactive
Swap70,1,-0.47,enough cells in well,inactive
Herc4,1,0.21,enough cells in well,inactive
Yy1,1,-0.92,enough cells in well,inactive
Cdk3,1,-1.11,enough cells in well,inactive
Hsf4,1,-0.33,enough cells in well,inactive
Ccl28,1,-0.56,enough cells in well,inactive
Mfap5,1,-0.13,enough cells in well,inactive
Alad,1,2.09,enough cells in well,inactive
Stbd1,1,3.62,enough cells in well,active
Entpd1,1,0.72,enough cells in well,inactive
Trmt11,1,1.6,enough cells in well,inactive
4930429B21Rik,1,,fewer than 50 cells per well; well left out of calls,inactive
Nme3,1,,fewer than 50 cells per well; well left out of calls,inactive
Svs5,1,0.98,enough cells in well,inactive
Cpne3,1,-0.34,enough cells in well,inactive
Dnaja4,1,-0.01,enough cells in well,inactive
D630028G08Rik,1,-2.18,enough cells in well,active
Gcg,1,0.15,enough cells in well,inactive
Or5b102,1,-0.71,enough cells in well,inactive
Dffb,1,-0.29,enough cells in well,inactive
Mapk15,1,0,enough cells in well,inactive
Tex16,1,1.13,enough cells in well,inactive
Snx33,1,0.87,enough cells in well,inactive
Cpa1,1,-0.98,enough cells in well,inactive
Ablim2,1,0,enough cells in well,inactive
Vmn1r38,1,-0.6,enough cells in well,inactive
Npr3,1,1.21,enough cells in well,inactive
Bysl,1,-0.49,enough cells in well,inactive
Wnk2,1,-1.16,enough cells in well,inactive
Recql,1,1,enough cells in well,inactive
Garre1,1,,fewer than 50 cells per well; well left out of calls,inactive
Nkx1-2,1,1.14,enough cells in well,inactive
Actl11,1,-0.53,enough cells in well,inactive
Tec,1,-1.54,enough cells in well,active
Mark3,1,-0.7,enough cells in well,inactive
Ctnnbip1,1,-0.3,enough cells in well,inactive
Mageh1,1,1.29,enough cells in well,inactive
Ins1,1,0.38,enough cells in well,inactive
Or4c3d,1,-0.52,enough cells in well,inactive
Ndufv1,1,-0.77,enough cells in well,inactive
Ap2a1,1,-0.6,enough cells in well,inactive
Oxld1,1,,fewer than 50 cells per well; well left out of calls,inactive
Tbkbp1,1,,fewer than 50 cells per well; well left out of calls,inactive

Called active, of those listed so far:
gene,pool no.,Tnf reporter robust z-score,fewer than 50 cells in well,Outcome
Lpar5,1,-1.32,enough cells in well,active
L3mbtl4,2,-1.74,enough cells in well,active
Or4c10,1,-1.37,enough cells in well,active
Chaf1a,1,-1.4,enough cells in well,active
Dcaf13,1,3.8,enough cells in well,active
Plekha5,1,-1.38,enough cells in well,active
Stbd1,1,3.62,enough cells in well,active
D630028G08Rik,1,-2.18,enough cells in well,active
Tec,1,-1.54,enough cells in well,active
